Source: PubChem BioAssay (EPA / NIEHS)
Several values for one entry are separate records, joined by “and”; a condition that tells them apart may be missing. Identical values can stand only once. This list was built around the results that the source calls inconclusive (neither active nor inactive); the mix of calls is not that of the screen. A potency beside an inconclusive call is a rough fit, not a confirmed value. Activity calls are given as the source filed them. How the source made its calls: active means hit-call score of the fitted dose curve at least 0.9, where 1 is the maximum; inconclusive means response in the unintended direction; inactive means score below 0.9.

The chains behind the UniProt entries cited, without tags or fusion partners.
UniProt P49884, whole entry, looked up: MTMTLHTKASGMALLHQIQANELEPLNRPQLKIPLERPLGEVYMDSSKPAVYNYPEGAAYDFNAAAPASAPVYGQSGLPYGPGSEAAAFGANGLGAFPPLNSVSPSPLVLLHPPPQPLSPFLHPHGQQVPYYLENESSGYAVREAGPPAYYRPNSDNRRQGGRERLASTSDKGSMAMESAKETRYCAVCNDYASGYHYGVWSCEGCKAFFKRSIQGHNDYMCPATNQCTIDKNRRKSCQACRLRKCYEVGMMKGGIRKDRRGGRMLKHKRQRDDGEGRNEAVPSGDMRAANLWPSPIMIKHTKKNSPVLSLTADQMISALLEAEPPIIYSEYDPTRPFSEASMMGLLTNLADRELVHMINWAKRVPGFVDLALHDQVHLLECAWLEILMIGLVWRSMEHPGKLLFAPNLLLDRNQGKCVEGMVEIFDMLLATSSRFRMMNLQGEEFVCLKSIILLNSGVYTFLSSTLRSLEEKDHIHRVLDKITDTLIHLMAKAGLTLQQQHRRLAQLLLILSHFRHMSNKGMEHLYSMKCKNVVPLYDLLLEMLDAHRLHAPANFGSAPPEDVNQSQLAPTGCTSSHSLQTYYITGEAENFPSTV

What follows are compounds tested against bovine Estrogen Receptor (ER), ESR1 (gene 407238) (UniProt P49884) (assay: NVS_NR_bER: NovaScreen (NVS) Nuclear Receptor Binding Assay for bovine Estrogen Receptor (ER) (AID 2283345);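 further: actives lower the bound radioligand count which means they displace the ER ligand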).
In short: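 Scintillation counting of displaced radioligand gave the readout; bovine uterine membrane extract supplied the receptor. Measured 18 h post-dose, normalized to DMSO baseline. Single 25 uM duplicate screen preceded concentration-response follow-up.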
With `CNC(=O)Oc1ccccc1OC(C)C` the outcome was “inactive”. In the case of `CCOC(=O)/C=C(C)/C=C/C[C@@H](C)CCCC(C)C`, the outcome is reported as “inactive”. For `CCSC(=O)N1CCCCCC1`, the AC50 was inconclusive: 47 µM. `C=CC(=O)OCC(CC)(COC(=O)C=C)COC(=O)C=C` was tested, and the AC50 was active: 42.2 µM. In the case of `CC(=Cc1ccccc1)[N+](=O)[O-]`, the AC50 is reported as inconclusive: 25 µM. `CC1(C)CCC(Cc2ccc(Cl)cc2)C1(O)Cn1cncn1` (stereo unspecified) was tested, and the AC50 was inconclusive: 8.94 µM. `O=C1CCCN1` was tested, and the AC50 was inconclusive: 0.17 µM. With `Fc1ccc(C2(Cn3cncn3)OC2c2ccccc2Cl)cc1` (stereo unspecified) the AC50 was inconclusive: 25 µM. In the case of `CNC(=O)Oc1cccc2c1OC(C)(C)O2`, the AC50 is reported as inconclusive: 4.96 µM. In the case of `Clc1ccc(C2(Cn3cncn3)CC(Br)CO2)c(Cl)c1` (stereo unspecified), the outcome is reported as “inactive”. For `Nc1ccc(Br)cc1`, the AC50 was inconclusive: 1.01 µM. With `Clc1ccc(C(c2ccccc2Cl)C(Cl)(Cl)Cl)cc1` (stereo unspecified) the AC50 was inconclusive: 29.1 µM and inconclusive: 25.9 nM and the outcome was “inactive”. `O=S1OC[C@@H]2[C@H](CO1)[C@]1(Cl)C(Cl)=C(Cl)[C@@]2(Cl)C1(Cl)Cl` (stereo partly specified) was tested, and the AC50 was inconclusive: 2.39 µM. For `CC(Cl)(Cl)C(=O)O`, the outcome was “inactive”. For `O=C(Cl)OCCOCCOC(=O)Cl`, the AC50 was inconclusive: 1.06 µM. `C[C@H]1CCCC(=O)CCC/C=C/c2cc(O)cc(O)c2C(=O)O1` was tested, and the AC50 was active: 0.0119 µM. `Cl/C=C/Cl` was tested, and the AC50 was inconclusive: 25 µM. With `C=CC(=O)OCCCCCC(C)C` the outcome was “inactive”. For `Oc1ccc(-c2ccccc2)cc1`, the AC50 was inconclusive: 0.00229 µM. `CCCCC(CC)C(=O)Cl` (stereo unspecified) was tested, and the AC50 was inconclusive: 0.469 µM.
